Reference: paper PMC10093038
These are yes or no findings as the source states them, for the method shown. In cells and extracts the contact can be indirect. A yes stands for co-enrichment or nearness to the bait. Other partners may have been found.

Protein sequences, listed by entry. Tags and fused reporters are not part of them.
UniProt Q9Y2R2: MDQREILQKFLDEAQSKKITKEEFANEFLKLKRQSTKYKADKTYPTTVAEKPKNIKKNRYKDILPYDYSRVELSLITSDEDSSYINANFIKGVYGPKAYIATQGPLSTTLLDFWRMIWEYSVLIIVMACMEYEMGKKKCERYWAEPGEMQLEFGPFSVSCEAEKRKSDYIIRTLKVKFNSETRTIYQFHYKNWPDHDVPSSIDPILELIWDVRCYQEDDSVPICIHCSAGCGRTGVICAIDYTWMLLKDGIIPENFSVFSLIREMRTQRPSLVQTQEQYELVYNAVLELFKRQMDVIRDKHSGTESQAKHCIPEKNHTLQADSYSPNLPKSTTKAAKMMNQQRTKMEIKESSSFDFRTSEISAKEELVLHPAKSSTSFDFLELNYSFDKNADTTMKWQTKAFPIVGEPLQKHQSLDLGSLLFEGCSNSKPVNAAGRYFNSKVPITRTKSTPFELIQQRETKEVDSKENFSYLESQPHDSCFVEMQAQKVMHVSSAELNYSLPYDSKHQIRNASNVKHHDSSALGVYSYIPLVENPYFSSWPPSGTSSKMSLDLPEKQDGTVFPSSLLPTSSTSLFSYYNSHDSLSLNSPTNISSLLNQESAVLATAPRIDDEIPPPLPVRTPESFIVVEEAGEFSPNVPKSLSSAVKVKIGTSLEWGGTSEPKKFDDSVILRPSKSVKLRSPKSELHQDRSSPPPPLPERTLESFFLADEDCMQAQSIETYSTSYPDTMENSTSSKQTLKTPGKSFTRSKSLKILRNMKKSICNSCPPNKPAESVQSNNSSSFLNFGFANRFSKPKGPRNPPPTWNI

Molecular target: T1, THY1 (CD90), exogenous, stably expressed in NPC cells (human) (UniProt P04216)
T1 sequence: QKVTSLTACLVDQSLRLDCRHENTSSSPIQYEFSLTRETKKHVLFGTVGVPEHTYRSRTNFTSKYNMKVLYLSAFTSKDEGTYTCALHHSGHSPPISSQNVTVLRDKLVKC
Test: affinity purification with mass spectrometry; immunoprecipitates resolved by SDS-PAGE, Coomassie-stained bands excised, in-gel trypsin digestion, LTQ Velos, MASCOT search; cell lines only indicated in the figure

| Substance | binding |
| --- | --- |
| protein tyrosine phosphatase nonreceptor type 22 (PTPN22) (from UniProt Q9Y2R2 1-807) (enzyme) | binds |
| platelet-derived growth factor receptor β (PDGF-Rβ) (from UniProt P09619 33-1106) | binds |
